No constants are given. Whether binding was seen depends on the method and setting. A result given as binding can be weak or reduced; the word gives no strength. Tags and fused reporters may be left off the sequences shown.

Consider 2 molecules from article PMC3037368.

In assay [1] the target is T1, AtBPC6 (Arabidopsis thaliana BASIC … 6), full-length, yeast two-hybrid fusion (Arabidopsis thaliana) (UniProt Q8L999).
T1 sequence: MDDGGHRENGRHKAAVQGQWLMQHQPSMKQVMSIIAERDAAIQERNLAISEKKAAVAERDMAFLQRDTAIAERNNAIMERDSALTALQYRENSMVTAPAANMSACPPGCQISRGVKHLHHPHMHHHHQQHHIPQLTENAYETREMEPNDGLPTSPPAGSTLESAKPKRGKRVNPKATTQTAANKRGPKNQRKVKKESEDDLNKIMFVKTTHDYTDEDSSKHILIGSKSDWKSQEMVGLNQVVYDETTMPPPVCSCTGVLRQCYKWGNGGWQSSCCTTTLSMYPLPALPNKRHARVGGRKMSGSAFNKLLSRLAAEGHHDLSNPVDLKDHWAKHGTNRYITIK
As to the kind of experiment: two-hybrid; AD (pGADT7-DEST) and BD (pGBKT7-DEST) fusions in yeast PJ69-4A; growth on selective media (CSM-L-,W-,Ade-) and β-galactosidase reporter activity (MUG substrate, n = 9), background from empty AD-clone combinations.

Assay [2] deals with BPC6-ΔC fragment of AtBPC6, yeast two-hybrid fusion (Arabidopsis thaliana). The description is as above.

“BPC6-ΔC fragment of AtBPC6, yeast two-hybrid fusion (Arabidopsis thaliana) (domain or fragment)”: the binding entry in assay [1] is “binds”.

B1: AtBPC4 (Arabidopsis thaliana BASIC … 4), yeast two-hybrid fusion (protein, UniProt Q8S8C6 1-296)
chain: MENGGQYDNARFKPDYFKGAQSMWNMIPQHQIKEQHNALVMNKKIMSILAERDAAVHERNQAVSAKKEAVAARDEALQQRDKALSERDKALIERDNAYAALQHHENSLNFALSGGKCVDGDDCFGIGEPHKLEVFPLSTIPPEVTNTKVVNKRKKENKQGLSKVKKVGEDLNRRVPAPGKKSRTDWDSQDVGLNLVTFDETTMPVPMCSCTGSTRQCYKWGNGGWQSSCCTTTLSQYPLPQMPNKRHSRMGGRKMSGNVFSRLLSRLSAEGYDLSCPVDLKDYWARHGTNRYITIK
Turning to B1, the binding result in assay [2] is reported as “binds”.
